Measurements as given in patent US12161726B2, “Biomimetic vesicles and uses thereof” (Ohio State Innovation Foundation, priority 2018, dated 2024).
At least one compound was matched to its structure with a doubt left.

Key:
[1] = In vitro drug release in PBS (dialysis bag); type: physicochemical; conditions: from drug-loaded biomimetic nanoclusters, PBS pH 7.4, 37° C
Experimental: The in vitro drug release profiles from both rapamycin-loaded and JQ1-loaded biomimetic nanoclusters were studied in PBS (pH=7.4) (19). Briefly, drug-loaded biomimetic nanoclusters in the PBS (1 mg/mL, 5 mL) were enclosed in a cellulose membrane dialysis bag (molecular weight cut-off, 8 kDa). The dialysis bags were immersed in 100 mL of PBS, which was then kept in a horizontal laboratory shaker (100 rpm) at 37° C. At predetermined time intervals, 5 mL samples were collected and replaced with the same volume of PBS. The amounts of rapamycin and JQ1 in the collected samples were measured by HPLC and UV-Vis spectrometer, respectively, as indicated above.

[2] = test system: neointimal hyperplasia (IH) in balloon-injured carotid arteries; assay: Morphometric analysis of neointima after carotid artery balloon angioplasty; type: in vivo, rat; conditions: two i.v. injections (day 0 and 4), 14 days after angioplasty
[3] = Drug loading level (HPLC / UV-Vis); type: physicochemical; conditions: drug loaded into nanoclusters
Experimental: (d). Characterizations. 1H NMR spectra of all polymer products were recorded on a Varian Mercury Plus 300 spectrometer in DMSO-d6 or CDCl3 at 25° C. Molecular weights (Mn and Mw) and polydispersity indices (PDI) of the polymers were determined by a gel permeation chrornatographer (GPC) equipped with a refractive index detector, a viscometer detector, and a light scattering detector (Viscotek, USA), DMF with 0.01 M of LiBr was used as the mobile phase with. Fourier transform infrared (FT-IR) spectra were recorded on a Bruker Tensor 27 FT-IR spectrometer. The sizes and morphologies of the NPs were studied by dynamic light scattering (DLS, ZetaSizer Nano ZS90, Malvern Instruments, USA) and transmission electron microscopy (TEM, FEI Tecnai G2 F30 TWIN 300 KV, E.A, Fischione Instruments, Inc. USA). The zeta potentials were measured by ZetaSizer Nano ZS90 (Malvern Instruments, USA). The rapamycin loading level was measured by high-performance liquid chromatography (HPLC) using ultraviolet (UV) detection at 278 nm. The JQ1 loading level was measured by UV-Vis spectrometer at 323 nm.

In the case of `CO[C@H]1C[C@@H]2CC[C@@H](C)[C@@](O)(O2)C(=O)C(=O)N2CCCC[C@H]2C(=O)O[C@H]([C@H](C)C[C@@H]2CC[C@@H](O)[C@H](OC)C2)CC(=O)[C@H](C)/C=C(\C)[C@@H](O)[C@@H](OC)C(=O)[C@H](C)C[C@H](C)/C=C/C=C/C=C/1C` [rapamycin], the “In vitro drug release profile” value [1] was “released in a sustainable manner without a burst release”, the “Effect on IH (I/M ratio)” value [2] was “failed to mitigate IH” and the Drug loading level [3] was 20.8%.
